# Results from one PubChem assay

Data taken from PubChem BioAssay AID651754, deposited by NCATS (2012).

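HepG2 cells exposed to compound for 1 hr, then stained 30 min with a dye whose red/green fluorescence ratio tracks mitochondrial membrane potential. Percent change in the fluorescence ratio at the top concentration relative to controls; more negative means stronger depolarisation. Calls follow the dose-curve class and score, with scores of 1 to 39 marking inconclusive and 40 to 100 marking active.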

Values are in %. Common to all entries: at 92.2 µM (top of the series). All entries here are filed as inconclusive. Only part of the assay is shown, chiefly results filed as inconclusive. Activity scores are not listed here. An entry listed twice with the same setting is a separate test.

structure	ratio change (%)
[Cd+2].[Cl-].[Cl-]	8.065
CN(C)c1ccc(N=O)cc1	-28.85
c1ccc(P(c2ccccc2)c2ccccc2)cc1	-27.94
S=C(NC1CCCCC1)NC1CCCCC1	-33.74
Cc1cc(-c2ccc(N)c(C)c2)ccc1N	-11.84
CCCCOC(=O)c1ccccc1C(=O)OCCCC	-25.81
ClC(Cl)=C(c1ccc(Cl)cc1)c1ccc(Cl)cc1	-24.55
CC(=O)O[C@]1(C(C)=O)CC[C@H]2[C@@H]3C=C(Cl)C4=CC(=O)[C@@H]5C[C@@H]5[C@]4(C)[C@H]3CC[C@@]21C	-8.082
O=C1c2ccccc2C(=O)C1(O)O	-12.66
ClC(Cl)=C(c1ccc(Cl)cc1)c1ccc(Cl)cc1	-30.34
CNc1ccc([N+](=O)[O-])cc1	-19.8
CCCC(O)C(CC)CO (configuration not stated)	1.566
Nc1ncc([N+](=O)[O-])s1	-30.54
Cc1ccc(C)c(O)c1	-8.635
Cc1cccc2sc(N)nc12	-21.74

For reference, 2 entries once more:

| structure | ratio change (%) |
|---|---|
| `CCCCOC(=O)c1ccccc1C(=O)OCCCC` | -25.81 |
| `ClC(Cl)=C(c1ccc(Cl)cc1)c1ccc(Cl)cc1` | -24.55 |